{"source": "patent EP3505186B1", "about": "“NUCLEOPHILIC CATALYSTS FOR OXIME LINKAGE” (Takeda Pharmaceutical Company Limited, priority 2010, dated 2012)", "tested_on": "rFIX", "assay": "Evaluation of the efficacy of different nucleophilic catalysts: polysialylation of rFIX with aminooxy-PSA, SEC-HPLC", "key": {"[1]": {"details": "SEC-HPLC, 10 mM catalyst, 1 mg/ml rFIX, pH 6.0, 5-fold molar aminooxy-PSA reagent excess, 100 µM NaIO4, 2 hrs, room temperature"}}, "data": [{"smiles": "Nc1ccccc1", "note": "[aniline]", "values": [{"measurement": "di-PSAylated rFIX", "setting": "[1]", "result": 47.7, "unit": "%"}, {"measurement": "free rFIX", "setting": "[1]", "result": 18.7, "unit": "%"}, {"measurement": "mono-PSAylated rFIX", "setting": "[1]", "result": 33.6, "unit": "%"}]}, {"smiles": "Nc1cccc(C(=O)O)c1", "note": "[m-aminobenzioc acid, m-aminobenzoic acid]", "values": [{"measurement": "di-PSAylated rFIX", "setting": "[1]", "result": 27.6, "unit": "%"}, {"measurement": "free rFIX", "setting": "[1]", "result": 34.4, "unit": "%"}, {"measurement": "mono-PSAylated rFIX", "setting": "[1]", "result": 38.0, "unit": "%"}]}, {"smiles": "Cc1cccc(N)c1", "note": "[m-toluidine]", "values": [{"measurement": "di-PSAylated rFIX", "setting": "pH 6", "result": 31.4, "unit": "%"}, {"measurement": "free rFIX", "setting": "pH 6", "result": 27.8, "unit": "%"}, {"measurement": "mono-PSAylated rFIX", "setting": "pH 6", "result": 40.8, "unit": "%"}]}, {"smiles": "NC(=O)c1ccccc1N", "note": "[o-aminobenzamide]", "values": [{"measurement": "di-PSAylated rFIX", "setting": "[1]", "result": 15.9, "unit": "%"}, {"measurement": "free rFIX", "setting": "[1]", "result": 45.7, "unit": "%"}, {"measurement": "mono-PSAylated rFIX", "setting": "[1]", "result": 38.4, "unit": "%"}]}, {"smiles": "Nc1ccccc1C(=O)O", "note": "[o-aminobenzioc acid, o-aminobenzoic acid]", "values": [{"measurement": "di-PSAylated rFIX", "setting": "[1]", "result": 30.9, "unit": "%"}, {"measurement": "free rFIX", "setting": "[1]", "result": 30.6, "unit": "%"}, {"measurement": "mono-PSAylated rFIX", "setting": "[1]", "result": 38.5, "unit": "%"}]}, {"smiles": "Nc1ccc(C(=O)O)cc1", "note": "[p-aminobenzioc acid, p-aminobenzoic acid]", "values": [{"measurement": "di-PSAylated rFIX", "setting": "[1]", "result": 18.1, "unit": "%"}, {"measurement": "free rFIX", "setting": "[1]", "result": 42.6, "unit": "%"}, {"measurement": "mono-PSAylated rFIX", "setting": "[1]", "result": 39.3, "unit": "%"}]}, {"smiles": "Nc1ccc(S(=O)(=O)O)cc1", "note": "[sulfanilic acid]", "values": [{"measurement": "di-PSAylated rFIX", "setting": "[1]", "result": 11.8, "unit": "%"}, {"measurement": "free rFIX", "setting": "[1]", "result": 52.4, "unit": "%"}, {"measurement": "mono-PSAylated rFIX", "setting": "[1]", "result": 35.8, "unit": "%"}]}]}
